In publication PMC5467174:
Results are given in words; binding and its absence hold for the method and conditions named. In cells and extracts the contact can be indirect. Some results given as binding are weak or reduced against the parent protein; the word gives no strength.

Chains of the proteins cited; added tags and fusions are not shown.
UniProt Q8NDV7: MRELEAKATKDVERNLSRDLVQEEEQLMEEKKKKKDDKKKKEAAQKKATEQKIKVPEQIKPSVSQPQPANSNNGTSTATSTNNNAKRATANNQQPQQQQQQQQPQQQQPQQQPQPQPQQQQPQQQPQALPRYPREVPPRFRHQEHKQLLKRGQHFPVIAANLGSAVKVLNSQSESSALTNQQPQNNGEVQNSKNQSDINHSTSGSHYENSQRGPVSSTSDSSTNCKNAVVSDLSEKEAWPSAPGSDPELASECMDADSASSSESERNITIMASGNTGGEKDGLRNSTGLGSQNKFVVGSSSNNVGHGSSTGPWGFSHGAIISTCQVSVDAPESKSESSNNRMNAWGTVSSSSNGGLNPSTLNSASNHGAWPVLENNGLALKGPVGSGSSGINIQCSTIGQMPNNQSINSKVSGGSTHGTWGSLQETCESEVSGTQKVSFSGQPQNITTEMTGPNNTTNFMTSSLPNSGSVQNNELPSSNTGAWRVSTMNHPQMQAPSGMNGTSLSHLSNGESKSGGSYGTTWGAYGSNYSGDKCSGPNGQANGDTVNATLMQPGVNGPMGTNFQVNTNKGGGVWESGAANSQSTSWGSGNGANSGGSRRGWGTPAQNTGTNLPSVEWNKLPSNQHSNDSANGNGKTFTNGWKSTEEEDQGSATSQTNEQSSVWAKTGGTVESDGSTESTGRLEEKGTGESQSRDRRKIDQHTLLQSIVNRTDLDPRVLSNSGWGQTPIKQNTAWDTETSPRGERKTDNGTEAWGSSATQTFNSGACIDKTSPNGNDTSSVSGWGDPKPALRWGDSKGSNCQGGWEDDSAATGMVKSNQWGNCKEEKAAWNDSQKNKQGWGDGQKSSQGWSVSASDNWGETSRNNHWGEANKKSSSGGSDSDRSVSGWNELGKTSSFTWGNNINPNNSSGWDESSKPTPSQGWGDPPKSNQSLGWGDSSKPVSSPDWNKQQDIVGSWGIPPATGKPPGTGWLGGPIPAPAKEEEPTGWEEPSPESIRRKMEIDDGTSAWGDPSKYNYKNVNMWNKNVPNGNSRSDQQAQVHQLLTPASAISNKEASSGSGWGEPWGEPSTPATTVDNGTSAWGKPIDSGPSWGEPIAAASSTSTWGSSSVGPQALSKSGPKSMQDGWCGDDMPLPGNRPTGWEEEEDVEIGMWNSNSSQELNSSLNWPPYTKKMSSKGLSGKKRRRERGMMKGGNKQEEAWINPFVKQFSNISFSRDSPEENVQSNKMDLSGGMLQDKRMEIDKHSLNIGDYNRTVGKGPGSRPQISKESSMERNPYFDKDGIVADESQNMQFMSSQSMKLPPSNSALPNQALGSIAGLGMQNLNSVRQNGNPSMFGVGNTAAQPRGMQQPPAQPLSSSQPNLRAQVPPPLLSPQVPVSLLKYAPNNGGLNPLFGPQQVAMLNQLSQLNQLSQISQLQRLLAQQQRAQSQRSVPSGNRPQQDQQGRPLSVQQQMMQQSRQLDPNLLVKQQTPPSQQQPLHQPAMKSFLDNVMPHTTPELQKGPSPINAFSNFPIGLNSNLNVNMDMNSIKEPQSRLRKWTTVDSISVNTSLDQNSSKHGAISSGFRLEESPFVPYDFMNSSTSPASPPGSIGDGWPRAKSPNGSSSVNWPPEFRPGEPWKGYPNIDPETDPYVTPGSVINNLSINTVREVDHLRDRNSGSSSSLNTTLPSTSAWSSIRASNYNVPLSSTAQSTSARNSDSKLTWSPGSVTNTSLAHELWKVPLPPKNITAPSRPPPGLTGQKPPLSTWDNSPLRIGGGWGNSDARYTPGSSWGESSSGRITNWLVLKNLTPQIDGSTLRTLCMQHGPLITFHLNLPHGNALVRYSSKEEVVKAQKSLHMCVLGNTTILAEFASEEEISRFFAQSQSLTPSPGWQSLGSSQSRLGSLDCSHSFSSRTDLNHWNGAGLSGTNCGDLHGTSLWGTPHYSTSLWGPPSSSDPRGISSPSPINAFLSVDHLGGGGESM

Target: TNRC6A (human (endogenous in HeLa)) (UniProt Q8NDV7)
Experiment: co-IP; endogenous proteins from HeLa 11ht lysate, without micrococcal nuclease; anti-Ago2, anti-TNRC6A, anti-GIGYF2 or control IgG (5 μg each) on beads; western blot

B1: GIGYF2 (protein, UniProt Q6Y7W6 1-1299)
chain: MAAETQTLNFGPEWLRALSSGGSITSPPLSPALPKYKLADYRYGREEMLALFLKDNKIPSDLLDKEFLPILQEEPLPPLALVPFTEEEQRNFSMSVNSAAVLRLTGRGGGGTVVGAPRGRSSSRGRGRGRGECGFYQRSFDEVEGVFGRGGGREMHRSQSWEERGDRRFEKPGRKDVGRPNFEEGGPTSVGRKHEFIRSESENWRIFREEQNGEDEDGGWRLAGSRRDGERWRPHSPDGPRSAGWREHMERRRRFEFDFRDRDDERGYRRVRSGSGSIDDDRDSLPEWCLEDAEEEMGTFDSSGAFLSLKKVQKEPIPEEQEMDFRPVDEGEECSDSEGSHNEEAKEPDKTNKKEGEKTDRVGVEASEETPQTSSSSARPGTPSDHQSQEASQFERKDEPKTEQTEKAEEETRMENSLPAKVPSRGDEMVADVQQPLSQIPSDTASPLLILPPPVPNPSPTLRPVETPVVGAPGMGSVSTEPDDEEGLKHLEQQAEKMVAYLQDSALDDERLASKLQEHRAKGVSIPLMHEAMQKWYYKDPQGEIQGPFNNQEMAEWFQAGYFTMSLLVKRACDESFQPLGDIMKMWGRVPFSPGPAPPPHMGELDQERLTRQQELTALYQMQHLQYQQFLIQQQYAQVLAQQQKAALSSQQQQQLALLLQQFQTLKMRISDQNIIPSVTRSVSVPDTGSIWELQPTASQPTVWEGGSVWDLPLDTTTPGPALEQLQQLEKAKAAKLEQERREAEMRAKREEEERKRQEELRRQQEEILRRQQEEERKRREEEELARRKQEEALRRQREQEIALRRQREEEERQQQEEALRRLEERRREEEERRKQEELLRKQEEEAAKWAREEEEAQRRLEENRLRMEEEAARLRHEEEERKRKELEVQRQKELMRQRQQQQEALRRLQQQQQQQQLAQMKLPSSSTWGQQSNTTACQSQATLSLAEIQKLEEERERQLREEQRRQQRELMKALQQQQQQQQQKLSGWGNVSKPSGTTKSLLEIQQEEARQMQKQQQQQQQHQQPNRARNNTHSNLHTSIGNSVWGSINTGPPNQWASDLVSSIWSNADTKNSNMGFWDDAVKEVGPRNSTNKNKNNASLSKSVGVSNRQNKKVEEEEKLLKLFQGVNKAQDGFTQWCEQMLHALNTANNLDVPTFVSFLKEVESPYEVHDYIRAYLGDTSEAKEFAKQFLERRAKQKANQQRQQQQLPQQQQQQPPQQPPQQPQQQDSVWGMNHSTLHSVFQTNQSNNQQSNFEAVQSGKKKKKQKMVRADPSLLGFSVNASSERLNMGEIETLDDY
B1 was tested, and the binding was “binds weakly”.
